Test [1] deals with T1, human CCR9 (C-C chemokine receptor type 9) (human) (UniProt P51686).
T1 sequence (looked up): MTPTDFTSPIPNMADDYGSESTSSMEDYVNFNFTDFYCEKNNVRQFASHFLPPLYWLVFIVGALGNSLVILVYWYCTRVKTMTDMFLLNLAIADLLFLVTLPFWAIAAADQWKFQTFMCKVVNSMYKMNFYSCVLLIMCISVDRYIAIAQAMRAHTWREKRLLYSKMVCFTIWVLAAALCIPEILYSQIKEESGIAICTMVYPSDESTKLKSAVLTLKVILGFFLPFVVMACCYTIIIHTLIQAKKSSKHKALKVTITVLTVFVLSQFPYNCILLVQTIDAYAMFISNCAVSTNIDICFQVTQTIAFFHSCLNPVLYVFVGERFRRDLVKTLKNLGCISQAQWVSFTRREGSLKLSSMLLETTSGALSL
As to the kind of experiment: flow cytometry on WT and CCR9 KO MOLT4 cells.

Test [2] concerns the target T1, human CCR9 (C-C chemokine receptor type 9) (human). Description: flow cytometry of hybridoma supernatant on CCR9+ MOLT-4 and CCR9 KO MOLT-4 cells.

These are yes or no findings as the source states them, for the method shown. Some binding calls cover weakened binding; strength is not graded here.

B1: anti-CCR9 antibody clone 115 (antibody, V domains shown)
VH: QVQLKQSGPELVKPGTSVRVSCTASGYSFTDYIIYWVKQSHGRSLEWIGYIDPNNYNTRYSQKFKGKATLTVDKSSTSAFMHLNSLTSDDSAVYYCARDVYWGQGTTLTVSS
VL: DVVMTQTPLSLTVSLGDQASISCRSSQSLVHSNGKTYLQWYLQKPGQSPKLLIYKVSNRFSGVPDRFSGSGSGTDFTLKISRVEAEDLGVYFCAQSTHVWTFGGGTKLEIKR
notes: Murine monoclonal antibody, isotype IgG1; It was tested as hybridoma supernatant in the FACS screening and as Protein A/G purified antibody in the ELISA
Turning to B1, the binding result in test [1] and in test [2] was “binds” in each case.

Source of the values: EP4417623A1 (Fundació Institut de Recerca Contra la Leucèmia Josep …, dated 2024).
